Here are results for 4 substances from patent US10058598B2, “Peptides and combination of peptides for use in immunotherapy against various cancers” (immatics biotechnologies GmbH, priority 2015, dated 2018).

Data set [1] relates to source genes of the peptides (mRNA). The experiment in a line: Expression profiling of source genes by in-house RNAseq of tumor and normal tissue RNA (expression scores). More on the design: species or system human; key: +++: very highly over-expressed in tumors compared to a panel of normal tissues; ++: highly over-expressed in tumors compared to a panel of normal tissues; +: over-expressed in tumors compared to a panel of normal tissues.

The test system of data set [2] is A*24-positive cancer samples, cell lines and normal tissue samples. Put plainly: Identification and label-free relative LC-MS quantitation of HLA-A*24 tumor associated peptides presented on tumor versus normal tissues (XPRESIDENT). As to conditions: HLA-A*24 peptides. More on the design: species or system human; key: specifically presented on tumors (++++); very highly over-presented on tumors compared to a panel of normal tissues (+++); highly over-presented on tumors compared to a panel of normal tissues (++); over-presented on tumors compared to a panel of normal tissues (+).

For part of these data: Expression grades refer to the transcript from which the peptide derives; gene names, where given, were looked up from the sequence.

“282: peptide found in NUP93 (gene looked up) (KFVDSTFYL; listed as Homo sapiens) [compound 282]”: the “Expression score NSCLC” value in data set [1] (NSCLC = non-small cell lung cancer (N = 11) vs panel of normal tissues) is reported as “+”. Further, the “Expression score OC” value in data set [1] (OC = ovarian cancer (N = 12) vs panel of normal tissues) is “++”. For the same substance, in data set [1] (OSCAR = esophageal cancer, including cancer of the gastric-esophageal junction (N = 11) vs panel of normal tissues), the “Expression score OSCAR” value is recorded as “+”.

For “178 (IFIEVFSHF; listed as Homo sapiens) [compound 178]”, the “Presentation score HCC” value in data set [2] (HCC = hepatocellular carcinoma (N = 15) vs panel of normal tissues (N = 70)) is on record as “++++”.

Regarding “193 (RFHPTPLLL; listed as Homo sapiens) [compound 193]”, the “Presentation score RCC” value in data set [2] (RCC = renal cell carcinoma (N = 2) vs panel of normal tissues (N = 70)) was “++++”.

For “292: peptide found in SLC35E1 (gene looked up) (GMMTAILGV; listed as Homo sapiens) [compound 292]”, the “Expression score GB” value in data set [1] (GB = glioblastoma (N = 24) vs panel of normal tissues) is on record as “+++”.
